Source: doi:10.1101/137711
These are yes or no findings as the source states them, for the method shown. Some entries that bind do so weakly or less than the wild type. For some of these results: Where a sequence is shown, tags or fusion partners need not be part of it.

T1: Brn1 kleisin subunit of condensin, Brn1-HA3-His12 (S. cerevisiae) (UniProt P38170)
T1 sequence: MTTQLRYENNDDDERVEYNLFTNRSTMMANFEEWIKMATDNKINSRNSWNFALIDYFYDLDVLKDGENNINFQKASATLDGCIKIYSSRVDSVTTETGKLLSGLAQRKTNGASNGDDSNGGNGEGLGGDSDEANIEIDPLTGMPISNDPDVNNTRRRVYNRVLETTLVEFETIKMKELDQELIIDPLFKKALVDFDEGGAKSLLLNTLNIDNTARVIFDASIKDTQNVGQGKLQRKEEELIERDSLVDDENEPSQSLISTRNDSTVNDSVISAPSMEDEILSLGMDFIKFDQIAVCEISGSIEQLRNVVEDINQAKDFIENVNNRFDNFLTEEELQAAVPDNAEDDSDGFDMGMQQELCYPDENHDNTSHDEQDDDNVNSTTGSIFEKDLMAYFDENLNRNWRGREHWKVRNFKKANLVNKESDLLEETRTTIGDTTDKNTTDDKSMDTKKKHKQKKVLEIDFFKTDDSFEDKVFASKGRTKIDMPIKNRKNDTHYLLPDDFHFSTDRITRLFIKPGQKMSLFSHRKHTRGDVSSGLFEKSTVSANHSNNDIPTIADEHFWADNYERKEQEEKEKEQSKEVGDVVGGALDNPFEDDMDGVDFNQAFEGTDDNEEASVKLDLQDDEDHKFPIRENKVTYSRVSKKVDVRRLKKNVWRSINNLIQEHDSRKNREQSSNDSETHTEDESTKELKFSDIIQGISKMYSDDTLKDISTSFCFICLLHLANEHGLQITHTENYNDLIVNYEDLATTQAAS

T2: Smc4(Q302L)-StrepII3, ATPase-deficient Q-loop mutant (S. cerevisiae) (UniProt Q12267)
T2 sequence: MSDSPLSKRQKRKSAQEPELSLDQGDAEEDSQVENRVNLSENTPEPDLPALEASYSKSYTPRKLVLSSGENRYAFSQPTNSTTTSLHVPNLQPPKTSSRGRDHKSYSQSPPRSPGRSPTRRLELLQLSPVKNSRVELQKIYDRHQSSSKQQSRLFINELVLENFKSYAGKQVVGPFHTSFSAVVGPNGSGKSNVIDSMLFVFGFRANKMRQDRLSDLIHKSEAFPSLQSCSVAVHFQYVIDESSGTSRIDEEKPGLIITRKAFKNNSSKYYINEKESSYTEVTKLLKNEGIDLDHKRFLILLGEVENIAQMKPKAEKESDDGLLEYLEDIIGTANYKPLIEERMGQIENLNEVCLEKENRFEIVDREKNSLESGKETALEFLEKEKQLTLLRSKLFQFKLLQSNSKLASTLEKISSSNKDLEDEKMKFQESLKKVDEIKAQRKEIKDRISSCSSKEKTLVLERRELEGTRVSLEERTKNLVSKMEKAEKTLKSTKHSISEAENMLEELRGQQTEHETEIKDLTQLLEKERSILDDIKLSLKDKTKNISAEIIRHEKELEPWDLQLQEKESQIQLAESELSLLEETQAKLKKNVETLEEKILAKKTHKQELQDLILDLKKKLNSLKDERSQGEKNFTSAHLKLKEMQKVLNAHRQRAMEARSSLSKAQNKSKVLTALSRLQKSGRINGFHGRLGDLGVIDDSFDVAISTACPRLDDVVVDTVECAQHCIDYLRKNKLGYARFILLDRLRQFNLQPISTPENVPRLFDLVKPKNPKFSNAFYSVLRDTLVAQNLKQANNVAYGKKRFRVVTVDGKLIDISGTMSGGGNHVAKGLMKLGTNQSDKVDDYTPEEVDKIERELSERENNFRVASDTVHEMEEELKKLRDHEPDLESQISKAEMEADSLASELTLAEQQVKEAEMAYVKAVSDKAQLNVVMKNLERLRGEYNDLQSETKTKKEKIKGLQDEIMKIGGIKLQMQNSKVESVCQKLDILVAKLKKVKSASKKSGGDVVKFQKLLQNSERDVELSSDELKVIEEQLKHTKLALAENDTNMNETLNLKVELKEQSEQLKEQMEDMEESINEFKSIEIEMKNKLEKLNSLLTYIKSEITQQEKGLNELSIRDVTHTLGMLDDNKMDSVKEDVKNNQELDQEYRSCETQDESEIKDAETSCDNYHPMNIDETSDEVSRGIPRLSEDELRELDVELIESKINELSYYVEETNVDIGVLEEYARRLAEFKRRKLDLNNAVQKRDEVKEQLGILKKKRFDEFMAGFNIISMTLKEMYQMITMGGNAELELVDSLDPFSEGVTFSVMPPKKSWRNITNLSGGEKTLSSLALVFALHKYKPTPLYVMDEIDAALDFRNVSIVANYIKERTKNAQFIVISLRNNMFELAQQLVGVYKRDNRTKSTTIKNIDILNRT


Key:
[1] = biological target: T1, Brn1 kleisin subunit of condensin, Brn1-HA3-His12 (S. cerevisiae); assay: tandem affinity co-purification + SEC
[2] = biological target: T2, Smc4(Q302L)-StrepII3, ATPase-deficient Q-loop mutant (S. cerevisiae); assay: tandem affinity co-purification + SEC

Row | binding [1] | binding [2] | Binder
1 | binds | binds | Smc2(Q147L), ATPase-deficient Q-loop mutant (protein, UniProt P38989 1-1170) MKVEELIIDGFKSYATRTVITDWDPQFNAITGLNGSGKSNILDAICFVLGIASMSTVRASSLQDLIYKRGQAGVTKASVTIVFDNTDKSNSPIGFTNSPQISVTRQVVLGGTSKYLINGHRAPQQSVLQLFQSVQLNINNPNFLIMLGKITKVLNMKPSEILSLIEEAAGTKMFEDRREKAERTMSKKETKLQENRTLLTEEIEPKLEKLRNEKRMFLEFQSTQTDLEKTERIVVSYEYYNIKHKHTSIRETLENGETRMKMLNEFVKKTSEEIDSLNEDVEEIKLQKEKELHKEGTISKLENKENGLLNEISRLKTSLSIKVENLNDTTEKSKALESEIASSSAKLIEKKSAYANTEKDYKMVQEQLSKQRDLYKRKEELVSTLTTGISSTGAADGGYNAQLAKAKTELNEVSLAIKKSSMKMELLKKELLTIEPKLKEATKDNELNVKHVKQCQETCDKLRARLVEYGFDPSRIKDLKQREDKLKSHYYQTCKNSEYLKRRVTNLEFNYTKPYPNFEASFVHGVVGQLFQIDNDNIRYATALQTCAGGRLFNVVVQDSQTATQLLERGRLRKRVTIIPLDKIYTRPISSQVLDLAKKIAPGKVELAINLIRFDESITKAMEFIFGNSLICEDPETAKKITFHPKIRARSITLQGDVYDPEGTLSGGSRNTSESLLVDIQKYNQIQKQIETIQADLNHVTEELQTQYATSQKTKTIQSDLNLSLHKLDLAKRNLDANPSSQIIARNEEILRDIGECENEIKTKQMSLKKCQEEVSTIEKDMKEYDSDKGSKLNELKKELKLLAKELEEQESESERKYDLFQNLELETEQLSSELDSNKTLLHNHLKSIESLKLENSDLEGKIRGVEDDLVTVQTELNEEKKRLMDIDDELNELETLIKKKQDEKKSSELELQKLVHDLNKYKSNTNNMEKIIEDLRQKHEFLEDFDLVRNIVKQNEGIDLDTYRERSKQLNEKFQELRKKVNPNIMNMIENVEKKEAALKTMIKTIEKDKMKIQETISKLNEYKRETLVKTWEKVTLDFGNIFADLLPNSFAKLVPCEGKDVTQGLEVKVKLGNIWKESLIELSGGQRSLIALSLIMALLQFRPAPMYILDEVDAALDLSHTQNIGHLIKTRFKGSQFIVVSLKEGMFANANRVFRTRFQDGTSVVSIM
2 | binds | binds | Ycg1 HEAT-repeat subunit of condensin (protein, UniProt Q06680 1-1035) MQDPDGIDINTKIFNSVAEVFQKAQGSYAGHRKHIAVLKKIQSKAVEQGYEDAFNFWFDKLVTKILPLKKNEIIGDRIVKLVAAFIASLERELILAKKQNYKLTNDEEGIFSRFVDQFIRHVLRGVESPDKNVRFRVLQLLAVIMDNIGEIDESLFNLLILSLNKRIYDREPTVRIQAVFCLTKFQDEEQTEHLTELSDNEENFEATRTLVASIQNDPSAEVRRAAMLNLINDNNTRPYILERARDVNIVNRRLVYSRILKSMGRKCFDDIEPHIFDQLIEWGLEDRELSVRNACKRLIAHDWLNALDGDLIELLEKLDVSRSSVCVKAIEALFQSRPDILSKIKFPESIWKDFTVEIAFLFRAIYLYCLDNNITEMLEENFPEASKLSEHLNHYILLRYHHNDISNDSQSHFDYNTLEFIIEQLSIAAERYDYSDEVGRRSMLTVVRNMLALTTLSEPLIKIGIRVMKSLSINEKDFVTMAIEIINDIRDDDIEKQEQEEKIKSKKINRRNETSVDEEDENGTHNDEVNEDEEDDNISSFHSAVENLVQGNGNVSESDIINNLPPEKEASSATIVLCLTRSSYMLELVNTPLTENILIASLMDTLITPAVRNTAPNIRELGVKNLGLCCLLDVKLAIDNMYILGMCVSKGNASLKYIALQVIVDIFSVHGNTVVDGEGKVDSISLHKIFYKVLKNNGLPECQVIAAEGLCKLFLADVFTDDDLFETLVLSYFSPINSSNEALVQAFAFCIPVYCFSHPAHQQRMSRTAADILLRLCVLWDDLQSSVIPEVDREAMLKPNIIFQQLLFWTDPRNLVNQTGSTKKDTVQLTFLIDVLKIYAQIEKKEIKKMIITNINAIFLSSEQDYSTLKELLEYSDDIAENDNLDNVSKNALDKLRNNLNSLIEEINERSETQTKDENNTANDQYSSILGNSFNKSSNDTIEHAADITDGNNTELTKTTVNISAVDNTTEQSNSRKRTRSEAEQIDTSKNLENMSIQDTSTVAKNVSFVLPDEKSDAMSIDEEDKDSESFSEVC
